From publication PMC9411329
Results are given in words; binding and its absence hold for the method and conditions named. Binding seen in cells or lysates may run through a third protein. Some binding calls cover weakened binding; strength is not graded here.

Chains of the proteins cited; added tags and fusions are not shown.
UniProt O14980: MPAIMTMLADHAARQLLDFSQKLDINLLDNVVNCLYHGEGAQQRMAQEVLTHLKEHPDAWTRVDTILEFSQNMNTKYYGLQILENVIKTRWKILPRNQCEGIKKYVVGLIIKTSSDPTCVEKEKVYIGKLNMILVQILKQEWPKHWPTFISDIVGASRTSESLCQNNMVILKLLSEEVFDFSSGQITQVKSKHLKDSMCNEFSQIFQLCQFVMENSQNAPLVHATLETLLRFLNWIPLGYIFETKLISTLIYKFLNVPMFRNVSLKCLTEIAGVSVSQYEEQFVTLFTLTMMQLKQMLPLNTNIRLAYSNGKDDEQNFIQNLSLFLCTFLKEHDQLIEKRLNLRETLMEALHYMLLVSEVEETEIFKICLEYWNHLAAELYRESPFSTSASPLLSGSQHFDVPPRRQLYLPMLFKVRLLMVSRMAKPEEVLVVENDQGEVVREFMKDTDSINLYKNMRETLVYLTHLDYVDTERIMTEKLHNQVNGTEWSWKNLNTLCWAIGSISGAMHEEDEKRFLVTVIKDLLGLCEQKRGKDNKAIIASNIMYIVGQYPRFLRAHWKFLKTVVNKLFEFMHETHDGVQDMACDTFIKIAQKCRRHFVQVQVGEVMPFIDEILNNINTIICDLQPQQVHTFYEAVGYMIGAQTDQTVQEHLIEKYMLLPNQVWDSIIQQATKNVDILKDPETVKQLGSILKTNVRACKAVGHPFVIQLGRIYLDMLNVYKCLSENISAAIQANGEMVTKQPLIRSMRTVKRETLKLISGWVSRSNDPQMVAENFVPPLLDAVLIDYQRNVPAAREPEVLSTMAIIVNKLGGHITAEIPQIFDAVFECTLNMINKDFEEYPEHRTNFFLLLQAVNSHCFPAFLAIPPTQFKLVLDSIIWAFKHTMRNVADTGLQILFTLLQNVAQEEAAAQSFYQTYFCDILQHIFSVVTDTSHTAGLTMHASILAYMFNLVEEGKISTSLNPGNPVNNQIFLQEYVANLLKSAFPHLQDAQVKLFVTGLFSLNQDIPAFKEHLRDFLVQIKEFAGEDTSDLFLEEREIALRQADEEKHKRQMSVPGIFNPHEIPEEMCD
UniProt Q9UMX0: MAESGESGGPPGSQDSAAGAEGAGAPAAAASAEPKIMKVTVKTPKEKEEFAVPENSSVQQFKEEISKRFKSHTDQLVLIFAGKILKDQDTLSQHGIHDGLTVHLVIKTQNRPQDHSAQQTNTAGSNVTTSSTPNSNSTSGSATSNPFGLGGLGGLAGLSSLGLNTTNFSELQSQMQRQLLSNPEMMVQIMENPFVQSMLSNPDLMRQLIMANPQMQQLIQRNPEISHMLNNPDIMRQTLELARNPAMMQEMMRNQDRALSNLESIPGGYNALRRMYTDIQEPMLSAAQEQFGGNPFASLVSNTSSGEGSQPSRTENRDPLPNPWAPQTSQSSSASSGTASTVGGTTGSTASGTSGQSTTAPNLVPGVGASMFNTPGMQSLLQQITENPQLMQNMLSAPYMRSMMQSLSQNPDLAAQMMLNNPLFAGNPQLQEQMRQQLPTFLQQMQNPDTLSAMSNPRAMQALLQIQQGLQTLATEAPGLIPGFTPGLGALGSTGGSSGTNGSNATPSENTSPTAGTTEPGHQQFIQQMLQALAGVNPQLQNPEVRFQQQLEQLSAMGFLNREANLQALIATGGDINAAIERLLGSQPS

How the values were obtained:
[1] = molecular target: exportin-1 (human (endogenous in Jurkat)) (UniProt O14980); assay: co-IP; Jurkat cell lysates (whole cell lysates for Fig. 2e,f); IP of ubiquilin-1 or exportin-1 on Protein A/G magnetic beads overnight at 4 °C, Western blot; cells with or without LMB pretreatment, lysates with or without 10 µM GTPγS for 15 min on ice
[2] = molecular target: exportin-1 (human (endogenous in Jurkat)) (UniProt O14980); assay: co-IP; lysates of EVs released by WT and CD47-deficient Jurkat T cells (untreated, 20 nM LMB or TSP1 treated cells); IP with exportin-1 antibody on magnetic beads overnight at 4 °C in PBS with Triton X-100, Western blot
[3] = molecular target: ubiquilin-1 (human (endogenous in Jurkat)) (UniProt Q9UMX0); assay: co-IP; Jurkat cell lysates (whole cell lysates for Fig. 2e,f); IP of ubiquilin-1 or exportin-1 on Protein A/G magnetic beads overnight at 4 °C, Western blot; cells with or without LMB pretreatment, lysates with or without 10 µM GTPγS for 15 min on ice

## ubiquilin-1 (from UniProt Q9UMX0 1-589)
[1]
  binding: binds
[2]
  binding: binds

## exportin-1 (from UniProt O14980 1-1071)
[3]
  binding: binds

B1: Ran binding protein-3 (protein, UniProt Q9H6Z4 1-567)
chain: MADLANEEKPAIAPPVFVFQKDKGQKSPAEQKNLSDSGEEPRGEAEAPHHGTGHPESAGEHALEPPAPAGASASTPPPPAPEAQLPPFPRELAGRSAGGSSPEGGEDSDREDGNYCPPVKRERTSSLTQFPPSQSEERSSGFRLKPPTLIHGQAPSAGLPSQKPKEQQRSVLRPAVLQAPQPKALSQTVPSSGTNGVSLPADCTGAVPAASPDTAAWRSPSEAADEVCALEEKEPQKNESSNASEEEACEKKDPATQQAFVFGQNLRDRVKLINESVDEADMENAGHPSADTPTATNYFLQYISSSLENSTNSADASSNKFVFGQNMSERVLSPPKLNEVSSDANRENAAAESGSESSSQEATPEKESLAESAAAYTKATARKCLLEKVEVITGEEAESNVLQMQCKLFVFDKTSQSWVERGRGLLRLNDMASTDDGTLQSRLVMRTQGSLRLILNTKLWAQMQIDKASEKSIRITAMDTEDQGVKVFLISASSKDTGQLYAALHHRILALRSRVEQEQEAKMPAPEPGAAPSNEEDDSDDDDVLAPSGATAAGAGDEGDGQTTGST
[2]
  binding: binds
